Patent EP4810518A2, “ANTIBODY THAT BINDS ERBB-2 AND ERBB-3” (Merus B.V., priority 2017, dated 2018)
For at least one compound, name, drawing or mass did not settle the structure.

Tested on: HER2 overexpressing cells (SK-BR-3, BT-474, N87)
Experiment: In vitro drug combinations with PB4188 (checkerboard titrations, isobolograms)
Assay type: cell-based
Conditions: HRG in matrigel or HRG stress concentrations
Procedure: Moreover, combination with chemotherapeutic drugs and cyclin inhibitors were tested. Combinations were tested on HER2 overexpressing cells growing in the presence of HRG in matrigel (SK-BR-3 and BT-474) or in the presence of HRG stress concentrations (N87 and SK-BR-3 as described in proliferation assays). The inhibitory effect of drug combinations was tested by imaging or by measuring proliferation using Alamar Blue as described herein before. […] The extent of growth inhibition obtained with each combination was calculated. […] The inhibition values of the combination experiments were used by CHALICE™ Analyzer software to generate the isobolograms.

`CN(C)C/C=C/C(=O)Nc1cc2c(Nc3ccc(F)c(Cl)c3)ncnc2cc1O[C@H]1CCOC1` [afatinib] was tested, and the “Drug combination with PB4188 (isobologram analysis)” value was “synergistic”.
